Here are results for two substances from PMC5592675.

Protein sequences, listed by entry. Tags and fused reporters are not part of them. Lines headed by an entry give the natural chain unless they say otherwise; changes in a name come on top.
UniProt Q9JKF1: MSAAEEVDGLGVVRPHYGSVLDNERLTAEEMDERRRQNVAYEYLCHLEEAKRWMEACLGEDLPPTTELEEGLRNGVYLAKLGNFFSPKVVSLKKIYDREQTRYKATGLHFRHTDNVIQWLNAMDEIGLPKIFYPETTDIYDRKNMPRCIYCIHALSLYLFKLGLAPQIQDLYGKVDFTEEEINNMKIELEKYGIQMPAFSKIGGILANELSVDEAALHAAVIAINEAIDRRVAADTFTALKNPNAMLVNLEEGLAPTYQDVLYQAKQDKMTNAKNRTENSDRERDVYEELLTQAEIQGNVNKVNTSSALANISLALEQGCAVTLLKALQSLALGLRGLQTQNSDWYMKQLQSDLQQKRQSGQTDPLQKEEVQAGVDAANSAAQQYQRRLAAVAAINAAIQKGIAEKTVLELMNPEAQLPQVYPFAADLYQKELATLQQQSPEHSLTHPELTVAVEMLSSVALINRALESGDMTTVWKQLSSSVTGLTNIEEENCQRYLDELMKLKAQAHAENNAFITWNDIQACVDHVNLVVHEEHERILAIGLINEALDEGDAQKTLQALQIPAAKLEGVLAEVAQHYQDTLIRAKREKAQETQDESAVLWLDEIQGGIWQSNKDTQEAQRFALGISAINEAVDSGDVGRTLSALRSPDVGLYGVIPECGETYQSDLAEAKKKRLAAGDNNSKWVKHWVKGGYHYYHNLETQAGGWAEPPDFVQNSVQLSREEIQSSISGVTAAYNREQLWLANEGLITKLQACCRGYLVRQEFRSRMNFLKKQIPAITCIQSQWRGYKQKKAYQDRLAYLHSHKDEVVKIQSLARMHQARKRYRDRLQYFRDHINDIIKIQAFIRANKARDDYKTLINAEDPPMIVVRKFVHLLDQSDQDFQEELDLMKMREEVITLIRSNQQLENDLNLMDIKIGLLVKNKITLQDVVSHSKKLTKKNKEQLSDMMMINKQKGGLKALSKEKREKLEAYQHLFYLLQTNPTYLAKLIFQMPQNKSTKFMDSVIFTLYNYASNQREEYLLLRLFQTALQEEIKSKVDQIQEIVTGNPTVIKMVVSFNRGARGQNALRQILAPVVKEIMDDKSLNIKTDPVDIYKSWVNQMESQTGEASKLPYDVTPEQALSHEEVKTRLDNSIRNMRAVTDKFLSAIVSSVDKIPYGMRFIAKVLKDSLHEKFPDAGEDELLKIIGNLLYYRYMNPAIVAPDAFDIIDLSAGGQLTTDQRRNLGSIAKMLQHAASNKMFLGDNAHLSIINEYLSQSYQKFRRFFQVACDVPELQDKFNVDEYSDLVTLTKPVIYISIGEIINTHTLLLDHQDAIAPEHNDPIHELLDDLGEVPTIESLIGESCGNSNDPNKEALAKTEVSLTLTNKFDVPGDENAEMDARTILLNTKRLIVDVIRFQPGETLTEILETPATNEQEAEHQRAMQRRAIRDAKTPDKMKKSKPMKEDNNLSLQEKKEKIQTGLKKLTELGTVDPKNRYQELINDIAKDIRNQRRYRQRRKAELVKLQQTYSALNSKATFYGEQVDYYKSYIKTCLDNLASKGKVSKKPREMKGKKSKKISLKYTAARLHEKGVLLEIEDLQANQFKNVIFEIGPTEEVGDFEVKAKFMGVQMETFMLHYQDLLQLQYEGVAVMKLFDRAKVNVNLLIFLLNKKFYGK

This assay concerns the target T1, Myc-tagged LGR5-WT (leucine-rich repeat-containing G protein-coupled receptor 5) (UniProt O75473).
T1 sequence: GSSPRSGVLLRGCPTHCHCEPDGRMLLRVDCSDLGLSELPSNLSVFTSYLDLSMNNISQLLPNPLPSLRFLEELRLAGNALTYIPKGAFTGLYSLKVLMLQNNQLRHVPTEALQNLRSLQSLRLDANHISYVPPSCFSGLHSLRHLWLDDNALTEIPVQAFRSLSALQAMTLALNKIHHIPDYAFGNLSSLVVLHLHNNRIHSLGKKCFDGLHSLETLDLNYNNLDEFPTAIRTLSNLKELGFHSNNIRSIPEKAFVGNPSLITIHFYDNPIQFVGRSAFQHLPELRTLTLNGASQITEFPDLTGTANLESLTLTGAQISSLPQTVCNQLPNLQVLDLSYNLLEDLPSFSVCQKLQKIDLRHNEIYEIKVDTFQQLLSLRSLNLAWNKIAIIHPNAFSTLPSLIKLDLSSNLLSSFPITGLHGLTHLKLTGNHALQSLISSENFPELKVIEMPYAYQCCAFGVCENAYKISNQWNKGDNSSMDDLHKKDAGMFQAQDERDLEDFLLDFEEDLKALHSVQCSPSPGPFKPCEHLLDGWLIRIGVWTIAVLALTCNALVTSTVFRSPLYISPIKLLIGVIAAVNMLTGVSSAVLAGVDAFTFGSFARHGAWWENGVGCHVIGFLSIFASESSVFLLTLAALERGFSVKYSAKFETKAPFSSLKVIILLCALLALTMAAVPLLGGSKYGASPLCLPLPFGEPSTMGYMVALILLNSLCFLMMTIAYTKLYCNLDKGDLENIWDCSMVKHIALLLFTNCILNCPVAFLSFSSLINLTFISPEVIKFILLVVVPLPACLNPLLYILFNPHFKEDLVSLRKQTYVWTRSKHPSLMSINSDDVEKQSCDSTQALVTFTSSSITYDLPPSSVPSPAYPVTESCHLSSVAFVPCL
The assay can be described thus: co-IP; recombinant overexpression in HEK293T cells; whole-cell lysates incubated ~3-4 h at 4 °C with antibody magnetic beads (anti-Myc, anti-FLAG listed); Western blot. (In general: Immunoblotting shows a protein as a band on a membrane.)

Results are given in words; binding and its absence hold for the method and conditions named. In cells and extracts the contact can be indirect. Binding calls can cover weak binding; strength is not graded here. Where a sequence is shown, tags or fusion partners need not be part of it.

With “FLAG-IQGAP1 GRD domain (RasGAP-related domain) (mouse) (domain or fragment)”, the binding result is listed as “binds weakly”.
For the substance “FLAG-IQGAP1 variant lacking the GRD domain (ΔGRD) (from UniProt Q9JKF1)”, the binding result was “binds”.
